Test results taken from the supplement of paper PMC10849652.
Some of the results follow. Residues, ends and D or L forms follow the SMILES beside them. *: point of attachment. Cbz = O=C(OCc1ccccc1)*

By UniProt entry, the sequences of proteins in these tests, tags left out. Where a name states a change or a piece, a line headed by the entry shows the natural chain unless it says otherwise.
UniProt Q8WXF1: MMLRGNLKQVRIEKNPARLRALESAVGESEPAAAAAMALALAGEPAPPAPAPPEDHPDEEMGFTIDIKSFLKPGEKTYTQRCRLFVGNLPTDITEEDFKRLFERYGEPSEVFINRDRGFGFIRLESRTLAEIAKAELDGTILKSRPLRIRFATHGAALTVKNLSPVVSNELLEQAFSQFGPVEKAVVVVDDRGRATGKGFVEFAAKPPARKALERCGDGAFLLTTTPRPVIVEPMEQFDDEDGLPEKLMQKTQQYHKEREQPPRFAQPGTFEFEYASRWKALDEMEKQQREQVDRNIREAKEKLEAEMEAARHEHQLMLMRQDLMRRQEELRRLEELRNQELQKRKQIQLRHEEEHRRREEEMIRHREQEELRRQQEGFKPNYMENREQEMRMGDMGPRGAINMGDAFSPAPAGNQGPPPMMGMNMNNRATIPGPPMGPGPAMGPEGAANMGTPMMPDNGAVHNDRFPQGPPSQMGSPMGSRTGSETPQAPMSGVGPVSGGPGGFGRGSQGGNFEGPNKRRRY
UniProt O43242, whole entry, looked up: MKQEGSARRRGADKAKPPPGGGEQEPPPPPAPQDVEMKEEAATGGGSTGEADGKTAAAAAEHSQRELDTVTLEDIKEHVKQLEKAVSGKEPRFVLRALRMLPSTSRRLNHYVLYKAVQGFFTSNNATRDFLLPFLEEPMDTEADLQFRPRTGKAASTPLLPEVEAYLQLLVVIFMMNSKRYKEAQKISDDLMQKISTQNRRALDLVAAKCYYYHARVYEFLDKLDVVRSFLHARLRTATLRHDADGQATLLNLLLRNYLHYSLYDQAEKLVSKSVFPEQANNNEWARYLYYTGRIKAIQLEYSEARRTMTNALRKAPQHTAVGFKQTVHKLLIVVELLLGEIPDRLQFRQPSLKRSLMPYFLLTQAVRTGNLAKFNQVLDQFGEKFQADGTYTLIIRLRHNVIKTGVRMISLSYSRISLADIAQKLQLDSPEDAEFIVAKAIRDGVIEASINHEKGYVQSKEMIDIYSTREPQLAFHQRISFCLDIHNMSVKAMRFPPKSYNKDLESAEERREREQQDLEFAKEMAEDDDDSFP
UniProt Q99436: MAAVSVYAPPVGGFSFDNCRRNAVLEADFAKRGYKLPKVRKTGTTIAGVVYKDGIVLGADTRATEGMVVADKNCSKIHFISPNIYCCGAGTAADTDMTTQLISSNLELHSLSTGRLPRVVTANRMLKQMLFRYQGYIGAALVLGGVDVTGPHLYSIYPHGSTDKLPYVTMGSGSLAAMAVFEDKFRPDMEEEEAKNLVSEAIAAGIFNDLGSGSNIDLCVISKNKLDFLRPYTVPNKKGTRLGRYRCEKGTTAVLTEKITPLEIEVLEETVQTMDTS
UniProt Q9Y3E5: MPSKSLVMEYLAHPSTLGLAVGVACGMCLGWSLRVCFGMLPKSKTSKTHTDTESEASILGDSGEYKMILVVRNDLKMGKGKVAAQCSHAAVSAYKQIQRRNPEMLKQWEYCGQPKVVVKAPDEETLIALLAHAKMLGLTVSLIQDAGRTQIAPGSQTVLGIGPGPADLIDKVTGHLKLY
UniProt Q8NDX1: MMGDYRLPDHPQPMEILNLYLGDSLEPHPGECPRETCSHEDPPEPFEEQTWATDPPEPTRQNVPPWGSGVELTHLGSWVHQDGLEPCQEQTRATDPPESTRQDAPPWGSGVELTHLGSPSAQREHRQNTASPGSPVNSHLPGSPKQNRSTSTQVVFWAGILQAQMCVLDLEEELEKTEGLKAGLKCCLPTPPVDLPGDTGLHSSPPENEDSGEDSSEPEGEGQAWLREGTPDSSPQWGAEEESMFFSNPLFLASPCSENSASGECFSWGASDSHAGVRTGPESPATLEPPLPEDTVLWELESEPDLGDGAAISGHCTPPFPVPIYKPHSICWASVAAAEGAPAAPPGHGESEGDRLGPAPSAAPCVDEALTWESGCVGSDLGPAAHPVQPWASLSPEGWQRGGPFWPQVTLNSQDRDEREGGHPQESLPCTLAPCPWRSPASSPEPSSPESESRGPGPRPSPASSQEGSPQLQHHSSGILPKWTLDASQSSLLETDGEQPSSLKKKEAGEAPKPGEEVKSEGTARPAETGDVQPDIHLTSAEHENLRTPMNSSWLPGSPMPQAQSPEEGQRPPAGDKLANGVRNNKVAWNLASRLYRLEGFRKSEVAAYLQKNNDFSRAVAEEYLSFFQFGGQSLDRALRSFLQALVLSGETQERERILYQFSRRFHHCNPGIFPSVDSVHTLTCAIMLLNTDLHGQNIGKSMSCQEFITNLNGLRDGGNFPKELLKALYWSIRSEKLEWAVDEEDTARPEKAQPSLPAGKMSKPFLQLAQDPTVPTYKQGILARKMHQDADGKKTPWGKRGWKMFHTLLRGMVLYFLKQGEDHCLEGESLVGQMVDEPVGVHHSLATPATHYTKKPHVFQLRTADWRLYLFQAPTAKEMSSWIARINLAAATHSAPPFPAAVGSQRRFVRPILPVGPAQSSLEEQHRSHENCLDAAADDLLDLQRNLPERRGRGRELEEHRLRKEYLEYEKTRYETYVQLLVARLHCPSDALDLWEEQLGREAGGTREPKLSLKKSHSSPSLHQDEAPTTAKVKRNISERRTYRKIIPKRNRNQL
UniProt Q14671: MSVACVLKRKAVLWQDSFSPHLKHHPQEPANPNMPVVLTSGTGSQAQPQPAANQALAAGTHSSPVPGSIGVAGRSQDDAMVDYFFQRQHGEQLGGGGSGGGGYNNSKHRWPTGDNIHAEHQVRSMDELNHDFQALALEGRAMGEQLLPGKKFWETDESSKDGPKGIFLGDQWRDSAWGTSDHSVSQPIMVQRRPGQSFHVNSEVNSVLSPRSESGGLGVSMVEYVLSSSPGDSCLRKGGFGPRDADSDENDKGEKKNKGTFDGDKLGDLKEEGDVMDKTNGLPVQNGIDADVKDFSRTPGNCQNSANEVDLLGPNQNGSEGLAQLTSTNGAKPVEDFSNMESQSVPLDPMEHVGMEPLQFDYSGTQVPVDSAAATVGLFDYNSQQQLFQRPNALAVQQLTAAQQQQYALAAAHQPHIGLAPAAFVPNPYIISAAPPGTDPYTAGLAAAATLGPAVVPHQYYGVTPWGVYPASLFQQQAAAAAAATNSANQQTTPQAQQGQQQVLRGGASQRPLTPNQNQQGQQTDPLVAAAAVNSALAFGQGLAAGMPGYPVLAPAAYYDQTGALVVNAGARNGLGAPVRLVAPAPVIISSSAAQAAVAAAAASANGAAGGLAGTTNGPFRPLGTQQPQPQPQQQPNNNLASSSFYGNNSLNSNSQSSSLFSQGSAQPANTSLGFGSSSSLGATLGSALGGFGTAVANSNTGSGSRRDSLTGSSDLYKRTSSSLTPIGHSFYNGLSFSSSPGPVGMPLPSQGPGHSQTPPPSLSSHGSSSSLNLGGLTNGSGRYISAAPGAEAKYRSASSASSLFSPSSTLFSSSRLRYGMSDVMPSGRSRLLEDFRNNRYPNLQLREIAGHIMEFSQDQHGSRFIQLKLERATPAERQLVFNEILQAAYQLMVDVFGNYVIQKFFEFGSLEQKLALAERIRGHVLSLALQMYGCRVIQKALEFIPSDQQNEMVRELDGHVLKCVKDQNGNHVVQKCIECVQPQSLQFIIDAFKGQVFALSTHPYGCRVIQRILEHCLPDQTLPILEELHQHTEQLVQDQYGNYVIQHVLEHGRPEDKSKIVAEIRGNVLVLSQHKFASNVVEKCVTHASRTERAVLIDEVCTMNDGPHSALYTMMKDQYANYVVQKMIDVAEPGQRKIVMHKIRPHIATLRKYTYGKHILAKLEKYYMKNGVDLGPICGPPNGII
UniProt Q05209: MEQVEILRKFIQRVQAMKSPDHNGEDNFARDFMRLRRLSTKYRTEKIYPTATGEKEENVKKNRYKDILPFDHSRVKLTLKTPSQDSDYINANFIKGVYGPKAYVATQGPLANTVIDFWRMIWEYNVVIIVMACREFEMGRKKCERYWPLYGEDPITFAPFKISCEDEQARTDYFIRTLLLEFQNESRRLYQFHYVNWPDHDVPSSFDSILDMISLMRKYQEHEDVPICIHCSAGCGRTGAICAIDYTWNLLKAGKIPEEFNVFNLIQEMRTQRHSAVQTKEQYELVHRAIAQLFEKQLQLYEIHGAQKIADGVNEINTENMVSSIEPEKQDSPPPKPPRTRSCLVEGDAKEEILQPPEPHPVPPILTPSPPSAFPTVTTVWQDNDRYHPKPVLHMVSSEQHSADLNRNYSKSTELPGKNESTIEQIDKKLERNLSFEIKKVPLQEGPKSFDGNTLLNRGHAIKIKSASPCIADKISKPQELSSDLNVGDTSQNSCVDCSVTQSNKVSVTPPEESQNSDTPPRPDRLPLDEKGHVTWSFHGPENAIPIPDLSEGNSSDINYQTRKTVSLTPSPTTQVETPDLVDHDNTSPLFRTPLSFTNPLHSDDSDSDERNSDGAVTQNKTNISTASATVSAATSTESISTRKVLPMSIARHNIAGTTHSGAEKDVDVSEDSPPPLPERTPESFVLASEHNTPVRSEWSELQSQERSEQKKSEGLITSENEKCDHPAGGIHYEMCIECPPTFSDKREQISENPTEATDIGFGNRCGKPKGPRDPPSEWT
UniProt P32322: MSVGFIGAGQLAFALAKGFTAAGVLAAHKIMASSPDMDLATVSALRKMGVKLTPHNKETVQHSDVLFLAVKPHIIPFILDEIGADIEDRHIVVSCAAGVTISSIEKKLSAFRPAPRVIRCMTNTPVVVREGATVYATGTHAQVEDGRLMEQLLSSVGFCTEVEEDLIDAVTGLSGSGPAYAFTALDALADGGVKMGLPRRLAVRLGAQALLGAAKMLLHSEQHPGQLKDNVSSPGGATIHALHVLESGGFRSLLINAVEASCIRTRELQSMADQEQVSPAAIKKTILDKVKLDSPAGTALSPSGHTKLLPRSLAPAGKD
UniProt Q12974: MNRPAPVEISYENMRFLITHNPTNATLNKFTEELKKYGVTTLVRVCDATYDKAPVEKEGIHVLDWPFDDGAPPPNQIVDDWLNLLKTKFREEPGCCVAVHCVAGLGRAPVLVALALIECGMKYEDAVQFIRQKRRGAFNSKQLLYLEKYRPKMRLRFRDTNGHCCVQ
UniProt O14818: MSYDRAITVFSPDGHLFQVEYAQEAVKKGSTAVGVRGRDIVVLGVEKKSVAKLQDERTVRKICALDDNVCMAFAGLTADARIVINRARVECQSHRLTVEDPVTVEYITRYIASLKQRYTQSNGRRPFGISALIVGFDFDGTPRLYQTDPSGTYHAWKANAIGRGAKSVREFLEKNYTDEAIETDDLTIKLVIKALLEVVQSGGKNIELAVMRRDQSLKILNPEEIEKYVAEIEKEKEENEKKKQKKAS

Tests used:
Assay in all cases: log2 fold change, soluble protein after heating vs DMSO (PISA); higher = thermal stabilisation; K562 cells, 10 uM, 30 min; active = over 0.2 and 3.5 SD of the protein, either way, in both replicates (recomputed)
[1] = compound: C#Cc1cccc(Nc2ncnc3cc(OCCOC)c(OCCOC)cc23)c1 [erlotinib]
How it was run: (§1)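 Quantification of soluble protein used TMTpro 16plex LC-MS/MS, with channel sums equalised. Samples were the supernatant after 21,000xg for 90 min of pooled aliquots from K562 cells (2×10^6 cells/mL) treated with 10 μM compound for 30 min, heated for 3 min over 48°C-58°C, and extracted in PBS with 0.5% NP-40 at 4°C. Values, from duplicates, describe thermal stability against control samples on a log2 fold-change scale.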

[2] = compound: C/C(=N\NC(=O)C1=CC(=CC=C1)S(=O)(=O)N2CCOCC2)/C3=C(C=CC(=C3)Cl)O
How it was run: as §1

[3] = compound: C1=CC(=C(C=C1Cl)C2=NC3=NC=CN=C3C(=N2)NC4=CC=NC=C4)F
How it was run: as §1

[4] = compound: C1=CC(=CC=C1C2=NC3=C(N2)C=C(C=C3)C(=O)N)OC4=CC=C(C=C4)Cl
How it was run: as §1

[5] = compound: C1=CC2=C(C=CC(=C2)/C=C\3/C(=O)NC(=NCC4=CC=CS4)S3)N=C1
How it was run: as §1

[6] = compound: C1=CC2=NC=CN=C2C=C1/C=C/3\C(=O)NC(=O)S3
How it was run: as §1

[7] = compound: C1=CC=C(C=C1)C2=NC(=C(N2)C3=CC=NC=C3)C4=CC(=C(C=C4)Cl)O
How it was run: as §1

[8] = compound: C1=CC=C2C(=C1)C3=NNC4=CC=CC(=C43)C2=O
How it was run: as §1

[9] = compound: C1CCN(C1)C(=O)NC2=CC=CC(=C2)NC3=NC=C(C(=N3)NCCC4=CN=CN4)Br
How it was run: as §1

[10] = compound: C1CN(CCC1(CC2=CC=C(C=C2)Cl)N)C3=NC=NC4=C3C=CN4
How it was run: as §1

[11] = compound: C1COCCN1CCN2C3=CC=CC=C3N=C2NC(=O)C4=CC(=CC=C4)[N+](=O)[O-] [IRAK-1-4 Inhibitor I]
How it was run: as §1

[12] = compound: C=CC(=O)N1CCC[C@@H](n2nc(-c3ccc(Oc4ccccc4)cc3)c3c(N)ncnc32)C1 [ibrutinib]
How it was run: as §1

[13] = compound: CC(=O)c1cnc2ccc(-c3cc(Cl)c(O)c(Cl)c3)nc2c1N[C@H]1CC[C@H](CN(C)C)CC1
How it was run: as §1

[14] = compound: CC(C)(C)Cn1c(N)nc2ccc(-c3[nH]c(C(C)(C)C)nc3-c3ccc(F)cc3)nc21 [ralimetinib]
How it was run: as §1

[15] = compound: CC(C)(O)CC(=O)NCCn1ccc2ncnc(Nc3ccc(Oc4cccc(C(F)(F)F)c4)c(Cl)c3)c21
How it was run: as §1

[16] = compound: CC(C)C1=C2N=C(C=C(N2N=C1)NCC3=CC=CC=C3)NCCCCCCN
How it was run: as §1

[17] = compound: CC(C)C[C@@H](C=O)NC(=O)[C@H](CC(C)C)NC(=O)[C@H](CC(C)C)NC(=O)OCc1ccccc1
How it was run: as §1

[18] = compound: CC(C)N(C[C@H]1O[C@@H](n2cnc3c(N)ncnc32)[C@H](O)[C@@H]1O)[C@H]1C[C@@H](CCc2nc3cc(C(C)(C)C)ccc3[nH]2)C1 [pinometostat]
How it was run: as §1

[19] = compound: CC1=C(C2=C(C=C1)C(=O)C3=CC=CC=C3N2CCCN)C
How it was run: as §1

[20] = compound: CC1=C(C(CC(=O)N1)C2=CC=C(C=C2)C(F)(F)F)C(=O)NC3=C(C=C4C(=C3)C=NN4)F
How it was run: as §1

Measured: log2 fold change

PSPC1 (UniProt Q8WXF1)
inactive: [1] -0.024 | [2] 0.014 | [3] -0.036 | [4] 0.043 | [5] -0.008 | [6] 0.004 | [7] -0.101 | [8] -0.141 | [9] -0.033 | [10] -0.061 | [11] -0.097 | [12] 0.002 | [13] -0.201 | [14] -0.012 | [15] -0.024 | [16] -0.18 | [17] 0.048 | [18] -0.02 | [19] 0.15

PSMD3 (UniProt O43242)
active: [17] -0.22
inactive: [1] -0.074 | [2] -0.05 | [3] -0.072 | [4] 0.002 | [5] -0.022 | [6] -0.028 | [7] 0.008 | [8] 0.033 | [9] -0.012 | [10] -0.066 | [11] -0.025 | [12] -0.031 | [13] 0.044 | [14] 0.023 | [15] -0.033 | [16] 0.01 | [18] 0.067 | [19] 0.039

PSMB7 (UniProt Q99436)
inactive: [1] -0.021 | [2] -0.054 | [3] -0.021 | [4] -0.008 | [5] -0.022 | [6] -0.009 | [7] 0.044 | [8] 0.012 | [9] 0.01 | [10] 0.022 | [11] -0.003 | [12] 0.019 | [13] 0.056 | [14] 0.012 | [15] 0.045 | [16] 0.07 | [17] -0.063 | [18] 0.004 | [20] 0.005 | [19] -0.033

Two consecutive records already listed, for reference:
PSMD3 (UniProt O43242)
active: [17] -0.22
inactive: [1] -0.074 | [2] -0.05 | [3] -0.072 | [4] 0.002 | [5] -0.022 | [6] -0.028 | [7] 0.008 | [8] 0.033 | [9] -0.012 | [10] -0.066 | [11] -0.025 | [12] -0.031 | [13] 0.044 | [14] 0.023 | [15] -0.033 | [16] 0.01 | [18] 0.067 | [19] 0.039

PSMB7 (UniProt Q99436)
inactive: [1] -0.021 | [2] -0.054 | [3] -0.021 | [4] -0.008 | [5] -0.022 | [6] -0.009 | [7] 0.044 | [8] 0.012 | [9] 0.01 | [10] 0.022 | [11] -0.003 | [12] 0.019 | [13] 0.056 | [14] 0.012 | [15] 0.045 | [16] 0.07 | [17] -0.063 | [18] 0.004 | [20] 0.005 | [19] -0.033

(next part)

PTRH2 (UniProt Q9Y3E5)
inactive: [1] 0.015 | [2] 0.048 | [3] 0.125 | [4] -0.002 | [5] 0.049 | [6] -0.004 | [7] 0.169 | [8] -0.022 | [9] -0.038 | [10] 0.007 | [11] 0.059 | [12] 0.031 | [13] 0.075 | [14] 0.085 | [15] -0.065 | [16] 0.062 | [17] -0.081 | [18] -0.033 | [19] 0.017

PSD4 (UniProt Q8NDX1)
inactive: [1] -0.032 | [2] 0.344 | [3] -0.149 | [4] 0.003 | [5] -0.12 | [7] 0.128 | [8] -0.096 | [9] -0.053 | [10] -0.181 | [11] -0.07 | [13] -0.152 | [14] 0.293 | [15] -0.137 | [16] -0.2 | [17] 0.055 | [18] 0.205 | [20] -0.103 | [19] -0.071

PUM1 isoform 3 (UniProt Q14671)
inactive: [1] -0.023 | [2] 0 | [3] 0.04 | [4] 0.034 | [5] 0.047 | [6] 0.003 | [7] -0.013 | [8] 0.003 | [9] -0.057 | [10] 0.028 | [11] 0.004 | [12] 0.02 | [13] -0.097 | [14] 0.013 | [15] -0.022 | [16] -0.059 | [17] 0.02 | [18] 0.023 | [19] 0.063

PYCR1 (UniProt J3QKT4)
inactive: [1] 0.171 | [2] -0.43 | [3] 0.023 | [4] 0.01 | [5] 0.177 | [6] 0.01 | [8] 0.048 | [9] -0.062 | [10] 0.218 | [12] -0.058 | [13] -0.108 | [15] -0.04 | [16] 0.168 | [19] -0.017

PTPN12 (UniProt Q05209)
active: [13] 0.264
inactive: [1] 0.005 | [2] -0.007 | [3] -0.011 | [4] 0.004 | [5] 0.022 | [6] 0.101 | [7] -0.021 | [8] -0.036 | [9] -0.039 | [10] -0.05 | [11] -0.011 | [12] -0.008 | [14] 0.004 | [15] 0.039 | [16] -0.101 | [17] 0.057 | [18] 0.045 | [19] 0.004

PYCR1 isoform 3 (UniProt P32322)
inactive: [1] -0.022 | [2] 0.039 | [3] 0.045 | [5] -0.057 | [7] 0.023 | [8] 0.02 | [10] 0.063 | [11] -0.021 | [12] 0.035 | [13] 0.033 | [14] -0.008 | [15] -0.053 | [16] 0.038 | [17] -0.007 | [18] -0.099 | [20] -0.027 | [19] -0.005

PTP4A2 (UniProt Q12974)
inactive: [1] -0.054 | [2] 0.03 | [3] 0.134 | [4] 0.049 | [5] 0.018 | [6] -0.051 | [7] 0.205 | [8] -0.125 | [9] -0.029 | [10] -0.097 | [11] 0.019 | [12] 0.16 | [13] 0.065 | [14] 0.051 | [15] -0.051 | [16] 0.035 | [17] -0.157 | [18] -0.044 | [19] -0.164

PSMA7 isoform 2 (UniProt O14818)
inactive: [1] 0.096 | [2] -0.12 | [3] -0.102 | [4] -0.004 | [5] 0.199 | [6] -0.119 | [8] 0.011 | [9] 0.178 | [10] 0.02 | [11] 0.011 | [12] 0.089 | [13] -0.037 | [15] 0.098 | [16] -0.055 | [18] 0.036 | [20] 0.169 | [19] 0.066
